{"source": "PubChem BioAssay AID1347076", "about": "(National Center for Advancing Translational Sciences (NCATS), 2019)", "note": "“And” between values parts separate entries of the source, which are not always exact repeats. Identical values can stand only once. Screen size: about 400,000 compounds; about 13,000 (3.2%) were called active. Inconclusive results, whose numbers are uncertain, are shown with a selection of clear calls. Calls come from the whole dose curve; as a rule, active = well fitted cell-killing curve with a large enough effect; inconclusive = small, poorly fitted or top-dose-only effect, or effect the other way; inactive = flat fitted curve, though single readings scatter. A potency beside an inconclusive call is a rough fit, not a confirmed value. % is set by controls: 0 for no effect and ±100 for the full control effect; potency is the fitted concentration of half-maximal effect."}
{"assay": "qHTS assay for MDR1-selective chemotherapeutics: Primary screen using the drug-selected MDR subline cells KB-V1; note: nearly all actives have a fitted effect of over 60% in size", "conditions": "KB-V1 MDR cells viability, CellTiter-Glo, 72 h; activity change, negative = cytotoxicity: at 46.1 µM (top of the series)", "summary_of_the_method": "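In this primary screen, KB-V1 cells overexpressing P-gp are incubated with library compounds (lowest to highest concentration) for 72 h at 37 degrees C before a luminescent ATP viability read.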"}
{"smiles": "CC(C)c1nnc(NC(=O)Cc2ccccc2[N+](=O)[O-])s1", "Potency": "active: 23.1 µM"}
{"smiles": "COC(C(=O)NNC(=O)CCc1ccccc1)c1ccccc1", "note": "(centres undefined)", "activity change, negative = cytotoxicity": "inactive: 16.5%"}
{"smiles": "O=C(CN1CCc2ccccc2C1)NC1CCCC1", "activity change, negative = cytotoxicity": "inactive: 10.1%"}
{"smiles": "COc1ccc(CC(=O)OCC(=O)N(C)C2CCS(=O)(=O)C2)cc1OC", "note": "(centres undefined)", "activity change, negative = cytotoxicity": "inactive: 1.62%"}
{"smiles": "CCc1ccc(-n2c(C)nnc2SCc2nc(-c3ccc(OC)cc3)no2)cc1", "activity change, negative = cytotoxicity": "inactive: 11%"}
{"smiles": "Cc1ccc(NC(=O)CCSCCc2ccccn2)cc1", "Potency": "inconclusive: 29.1 µM [rising, single point]"}
{"smiles": "COc1ccc(Nc2nc(C(F)(F)F)nc(C)c2C#N)cc1", "Potency": "inconclusive: 14.6 µM [cytotoxic, partial curve, poor fit]"}
{"smiles": "CN(Cc1ccccc1)C(=O)c1ccc(NC(=O)Cc2ccc(NC(=O)C3CCCN(S(=O)(=O)c4cccc([N+](=O)[O-])c4)C3)cc2)cc1", "note": "(centres undefined)", "activity change, negative = cytotoxicity": "inactive: -9.45%"}
{"smiles": "Cc1ccc(NC(=O)Nc2cccnc2)cc1NC(=O)Nc1cccnc1", "Potency": "inconclusive: 29.1 µM [cytotoxic, single point]"}
{"smiles": "Cc1nn(-c2ccccn2)c2c1-c1nc(N)sc1CC2", "Potency": "inconclusive: 29.1 µM [cytotoxic, single point]"}
{"smiles": "CC(C)c1ccc(NC(=O)N2CCCC2C(=O)Nc2ccc(-n3cnnn3)cc2)cc1", "note": "(centres undefined)", "activity change, negative = cytotoxicity": "inactive: 0%"}
{"smiles": "CCOCC(=O)Nc1nnc(COC)s1", "activity change, negative = cytotoxicity": "inactive: -11.2%"}
{"smiles": "Cc1csc(NC(=O)c2oc3ccccc3c2C)n1", "Potency": "inconclusive: 16.4 µM [cytotoxic, partial curve, poor fit]"}
{"smiles": "Cc1cc(S(=O)(=O)NC2CC(C)(C)NC(C)(C)C2)c(Cl)cc1Cl", "Potency": "inconclusive: 20.6 µM [cytotoxic, partial curve, poor fit]"}
{"smiles": "Cc1ccccc1NP(=O)(c1ccccc1)c1nc2ccccc2s1", "note": "(centres undefined)", "Potency": "inconclusive: 20.6 µM [cytotoxic, single point]"}
{"smiles": "CCCc1nnc(NC(=O)CCC(=O)NCCc2ccc(OC)c(OC)c2)s1", "activity change, negative = cytotoxicity": "inactive: -11%"}
{"smiles": "Cc1ccc(NCC(=O)N/N=C/c2ccc(-c3cccc(C(F)(F)F)c3)o2)cc1", "activity change, negative = cytotoxicity": "inactive: -2.97%"}
{"smiles": "CNc1nc(N)nc(-c2cc(Cl)ccc2OC)n1", "activity change, negative = cytotoxicity": "inactive: -0.58%"}
{"smiles": "CCOC(=O)Cc1csc(NC(=O)c2csc3c2CCCC3)n1", "Potency": "inconclusive: 14.6 µM [cytotoxic, partial curve]"}
{"smiles": "CCn1c(SCc2ccccc2)nc2cc(S(N)(=O)=O)ccc21", "activity change, negative = cytotoxicity": "inactive: 11.2%"}
{"smiles": "CC1=C(C)C(=O)C(CCCCC#CCCCC#CCO)=C(C)C1=O", "Potency": "inconclusive: 20.6 µM [cytotoxic, single point]"}
{"smiles": "CC(C)(C)OC(=O)N1CCC(c2c(C(=O)NCc3ccc4c(c3)OCO4)cnn2-c2ccc(F)cc2F)CC1", "activity change, negative = cytotoxicity": "inactive: 5.51%"}
{"smiles": "CCC(=O)N(CCc1ccccc1)Cc1cc2cc3c(cc2[nH]c1=O)OCO3", "Potency": "inconclusive: 20.6 µM [cytotoxic, partial curve, poor fit]"}
{"smiles": "COc1ccc(-n2nnnc2SCC(=O)Nc2nnn(C)n2)cc1", "activity change, negative = cytotoxicity": "inactive: 0.203%"}
{"smiles": "COC(=O)c1c(NC(=O)c2ccc([N+](=O)[O-])o2)sc2c1CCN(C(C)C)C2", "Potency": "active: 14.6 µM"}
{"smiles": "CCCC(C(=O)NC1CCCC1)N(C(=O)Cn1nnc(-c2ccc(C)o2)n1)C1CCCC1", "note": "(centres undefined)", "Potency": "active: 4.11 µM"}
{"smiles": "CCOc1ccccc1CNS(=O)(=O)c1cc(-c2cc(C)no2)ccc1C", "activity change, negative = cytotoxicity": "inactive: -25.9%"}
{"smiles": "COc1ccccc1C(=O)NCCC(=O)NC1CCCC(C)C1C", "note": "(centres undefined)", "Potency": "inconclusive: 18.4 µM [cytotoxic, single point]"}
{"smiles": "O=C(Nc1cccc(NC(=O)C2CC2)n1)C1CC1", "Potency": "inconclusive: 14.6 µM [cytotoxic, partial curve]"}
{"smiles": "COc1ccc(NC(=S)Nc2ccccc2)c(OC)c1", "activity change, negative = cytotoxicity": "inactive: 0%"}
{"smiles": "COc1ccc(-n2c(CNc3ccc(C)cc3)nnc2SCc2ccccc2)cc1", "Potency": "inconclusive: 25.9 µM [cytotoxic, partial curve, poor fit]"}
{"smiles": "CC(=O)NC1=C(NC2CCS(=O)(=O)C2)C(=O)c2ccccc2C1=O", "note": "(centres undefined)", "activity change, negative = cytotoxicity": "inactive: -24.8%"}
{"smiles": "Cn1c(CNc2ccc(F)cc2)nnc1SCC(=O)NNC(=O)Cc1ccccc1", "Potency": "inconclusive: 23.1 µM [rising, partial curve]"}
{"smiles": "Cc1csc(NC(=O)CSc2ccc(-c3ccc(F)cc3)nn2)n1", "Potency": "inconclusive: 8.2 µM [cytotoxic, partial curve]"}
{"smiles": "COc1cc(C=O)ccc1OCCOCCOc1ccc(Cl)cc1Cl", "Potency": "inconclusive: 20.6 µM [cytotoxic, partial curve, poor fit]"}
{"smiles": "Cc1nnsc1S(=O)c1ccc(F)cc1", "note": "(centres undefined)", "Potency": "inconclusive: 10.3 µM [rising, single point]"}
{"smiles": "COc1ccc(-c2c(-c3cc(OC)cc(OC)c3)n(C)c3ccc(-c4ccn[nH]4)cc23)cc1", "Potency": "inconclusive: 29.1 µM [cytotoxic, single point]"}
{"smiles": "C=CCn1c(SCC(=O)c2ccc(Br)cc2)nnc1C(C)NC(=O)Cc1ccc(OC)cc1", "note": "(centres undefined)", "activity change, negative = cytotoxicity": "inactive: 0.852%"}
{"smiles": "CN(C)CCN(C)Cc1ccccc1Sc1cccc2ccccc12", "Potency": "active: 23.1 µM"}
{"smiles": "Cc1ccc(NC(=O)CCc2nc3cccnc3n2-c2ccccc2)cc1", "activity change, negative = cytotoxicity": "inactive: -26.3%"}
{"smiles": "O=C(Cn1cc([N+](=O)[O-])cn1)Nc1ccccn1", "activity change, negative = cytotoxicity": "inactive: 18.5%"}
{"smiles": "CCCCN(CC(=O)NCc1ccc(Cl)cc1)S(=O)(=O)c1ccc2c(c1)OCCO2", "Potency": "active: 11.6 µM"}
{"smiles": "OCC1OC(n2cnc3ncccc32)C(O)C1O", "note": "(centres undefined)", "activity change, negative = cytotoxicity": "inactive: -3.47%"}
{"smiles": "Cc1cc(C)c2oc(-c3ccc(NC(=O)c4cc(Br)ccc4Cl)cc3)nc2c1", "activity change, negative = cytotoxicity": "inactive: -5.29%"}
{"smiles": "Cc1ccc([N+](=O)[O-])cc1NC(=O)Nc1onc(C)c1C", "activity change, negative = cytotoxicity": "inactive: 0.376%"}
{"smiles": "N#Cc1ccccc1CCN1C(=O)c2ccccc2C1=O", "activity change, negative = cytotoxicity": "inactive: 13%"}
{"smiles": "CC(C)(C)c1ccc(/C=N/NC(=O)CN2CCS(=O)(=O)CC2)cc1", "Potency": "inconclusive: 13 µM [rising, partial curve, poor fit]"}
{"smiles": "Cc1ccc(Cn2c(O)c(N=NC(=S)Nc3ccccc3F)c3cc(S(=O)(=O)N4CCOCC4)ccc32)cc1", "Potency": "inconclusive: 0.651 µM [cytotoxic, full curve, poor fit]"}
{"smiles": "COCCN(CC(=O)Nc1cccc(C)c1C)C(=O)c1oc2ccccc2c1C", "Potency": "inconclusive: 6.51 µM [cytotoxic, full curve, poor fit]"}
{"smiles": "CCCCN(C)S(=O)(=O)c1ccc(C(=O)Nc2nnc(C3=COCCO3)o2)cc1", "Potency": "inconclusive: 13 µM [cytotoxic, partial curve]"}
{"smiles": "Cc1ccccc1NC(=S)NC(=O)COc1ccccc1C", "activity change, negative = cytotoxicity": "inactive: 6.57%"}
{"smiles": "CC(C)(C)C(=O)Nc1ccc(Cl)c(-c2nc3ccccc3[nH]2)c1", "activity change, negative = cytotoxicity": "inactive: -1%"}
{"smiles": "O=C(CSc1ccc(-c2ccccn2)nn1)N1CCc2ccccc21", "Potency": "inconclusive: 18.4 µM [cytotoxic, single point]"}
{"smiles": "COc1ccccc1C(=O)C1CCCN(C(=O)c2ccco2)C1", "note": "(centres undefined)", "Potency": "inconclusive: 0.0517 µM [rising, full curve, poor fit]"}
{"smiles": "Cn1c(N)c(C(=O)COC(=O)CCCc2nc3ccccc3s2)c(=O)n(C)c1=O", "activity change, negative = cytotoxicity": "inactive: 3.23%"}
{"smiles": "C=CCn1c(C(CC)CC(C)(C)O)n[nH]c1=S", "note": "(centres undefined)", "Potency": "inconclusive: 29.1 µM [rising, single point]"}
{"smiles": "COc1ccc(-n2nc(C(=O)NCC(=O)NC3CCCCCC3)c3ccccc3c2=O)cc1OC", "Potency": "inconclusive: 7.31 µM [cytotoxic, partial curve]"}
{"smiles": "C[C@H](CO)N1C[C@H](C)[C@@H](CN(C)CC2CC2)OCc2cnnn2CCCC1=O", "activity change, negative = cytotoxicity": "inactive: 3.44%"}
{"smiles": "CCOc1cc2[nH]c(=S)n(CCCOC)c(=O)c2cc1OCC", "activity change, negative = cytotoxicity": "inactive: 21.1%"}
{"smiles": "CCCCCCSc1cc(-c2nc3ccc(C)cn3c2NCc2ccccc2)ccc1OC", "Potency": "active: 13 µM and inconclusive: 20.6 µM [cytotoxic, single point]"}
{"smiles": "COc1ccc(CNC(=O)CCCCCn2c(=O)[nH]c3ccccc3c2=O)cc1", "Potency": "inconclusive: 23.1 µM [rising, partial curve, poor fit]"}
{"smiles": "COc1ccc(/C=C2\\SC(=O)N(CCC(=O)N3CCCCC3)C2=O)cc1OC", "Potency": "inconclusive: 20.6 µM [cytotoxic, partial curve]"}
{"smiles": "COc1ccc(-c2noc(C(C)n3nc(C)c([N+](=O)[O-])c3C)n2)cc1OC", "note": "(centres undefined)", "Potency": "inconclusive: 23.1 µM [cytotoxic, single point]"}
{"smiles": "CCOC(=O)c1cnc2ccccc2c1NCCO", "Potency": "inconclusive: 29.1 µM [rising, single point]"}
{"smiles": "CN(C)N=Nc1ccc(/C=C2\\C=Cc3ccccc32)cc1", "Potency": "inconclusive: 32.6 µM [rising, partial curve, poor fit]"}
{"smiles": "CCCCC(=O)N(C)c1c(CC)nc2c(OCc3ccc(Cl)cc3Cl)cccn12", "Potency": "active: 16.4 µM"}
{"smiles": "CCN(CC)S(=O)(=O)c1ccc2c(c1)N(CC(=O)Nc1ccc(F)cc1F)C(=O)C1CCCN21", "note": "(centres undefined)", "activity change, negative = cytotoxicity": "inactive: 7.81%"}
{"smiles": "Cc1ccc(CNc2ccc(-c3nc(-c4cccnc4)no3)cc2[N+](=O)[O-])cc1", "Potency": "inconclusive: 13 µM [rising, partial curve, poor fit]"}
{"smiles": "Cc1cc(C)n(-c2ccc(NC(=O)C3CCCCN3C(=O)c3ccoc3)cc2)n1", "note": "(centres undefined)", "Potency": "inconclusive: 29.1 µM [cytotoxic, single point]"}
{"smiles": "O=C1C(=Cc2ccncc2)CCCc2ccccc21", "Potency": "inconclusive: 23.1 µM [cytotoxic, partial curve, poor fit]"}
{"smiles": "CCc1cc2c(=O)c(-c3nc4ccccc4n3C)c(C(C)C)oc2c(CN2CCN(C)CC2)c1O", "Potency": "inconclusive: 0.92 µM [cytotoxic, full curve]"}
{"smiles": "Cc1ccc(NC(=O)COc2ccc3c(c2)OCO3)c(Cl)c1", "Potency": "inconclusive: 29.1 µM [rising, single point]"}
{"smiles": "CCOC(=O)C1(CCOC)CCN(Cc2ccc(C3CCCCO3)s2)CC1", "note": "(centres undefined)", "Potency": "inconclusive: 1.84 µM [cytotoxic, full curve, poor fit]"}
{"smiles": "CCOC(=O)c1[nH]c2ccccc2c1NC(=O)c1ccc(OC)c(OC)c1", "activity change, negative = cytotoxicity": "inactive: -5.5%"}
